Assay results taken from article PMC5704379.
These are yes or no findings as the source states them, for the method shown. Binding seen in cells or lysates may run through a third protein. Some entries that bind do so weakly or less than the wild type. For part of these data: Sequences can lack the tags named with a protein.

How the values were obtained:
[1] = target: T1, Sertad1 (human (endogenous in 293, K562, HL60, KG1a, U937)) (UniProt Q9UHV2); experiment: co-IP; endogenous proteins; 293, K562, HL60, KG1a and U937 cells lysed in RIPA lysis buffer; IP with anti-Sertad1 (and anti-iASPP), Western blot with anti-iASPP; rabbit IgG as negative control
T1 sequence: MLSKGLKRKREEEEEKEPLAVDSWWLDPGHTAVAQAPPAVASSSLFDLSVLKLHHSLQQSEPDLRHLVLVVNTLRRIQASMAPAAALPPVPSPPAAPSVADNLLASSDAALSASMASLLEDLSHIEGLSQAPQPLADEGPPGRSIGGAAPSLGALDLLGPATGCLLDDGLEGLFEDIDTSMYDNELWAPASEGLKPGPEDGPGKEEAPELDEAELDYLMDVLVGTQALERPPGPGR

[2] = target: T2, Sertad1 Serta domain with myc tag (UniProt Q9UHV2); experiment: co-IP; 293 cells cotransfected with myc-tagged full-length Sertad1 or single domains and pcDNA3.1-iASPP; lysates precipitated with anti-myc, blotted with anti-iASPP
T2 sequence: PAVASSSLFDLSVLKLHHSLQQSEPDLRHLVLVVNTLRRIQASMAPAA

[3] = target: T3, full-length Sertad1 with myc tag (UniProt Q9UHV2); experiment: as above
T3 sequence: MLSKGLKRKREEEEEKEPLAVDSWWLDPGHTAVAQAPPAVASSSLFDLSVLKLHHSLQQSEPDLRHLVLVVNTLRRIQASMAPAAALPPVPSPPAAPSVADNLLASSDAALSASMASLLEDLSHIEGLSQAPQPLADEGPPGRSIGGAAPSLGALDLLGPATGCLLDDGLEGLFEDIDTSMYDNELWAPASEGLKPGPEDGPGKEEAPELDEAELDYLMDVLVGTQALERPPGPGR

B1: iASPP (protein, UniProt Q8WUF5 1-828)
chain: MDSEAFQSARDFLDMNFQSLAMKHMDLKQMELDTAAAKVDELTKQLESLWSDSPAPPGPQAGPPSRPPRYSSSSIPEPFGSRGSPRKAATDGADTPFGRSESAPTLHPYSPLSPKGRPSSPRTPLYLQPDAYGSLDRATSPRPRAFDGAGSSLGRAPSPRPGPGPLRQQGPPTPFDFLGRAGSPRGSPLAEGPQAFFPERGPSPRPPATAYDAPASAFGSSLLGSGGSAFAPPLRAQDDLTLRRRPPKAWNESDLDVAYEKKPSQTASYERLDVFARPASPSLQLLPWRESSLDGLGGTGKDNLTSATLPRNYKVSPLASDRRSDAGSYRRSLGSAGPSGTLPRSWQPVSRIPMPPSSPQPRGAPRQRPIPLSMIFKLQNAFWEHGASRAMLPGSPLFTRAPPPKLQPQPQPQPQPQSQPQPQLPPQPQTQPQTPTPAPQHPQQTWPPVNEGPPKPPTELEPEPEIEGLLTPVLEAGDVDEGPVARPLSPTRLQPALPPEAQSVPELEEVARVLAEIPRPLKRRGSMEQAPAVALPPTHKKQYQQIISRLFHRHGGPGPGGPEPELSPITEGSEARAGPPAPAPPAPIPPPAPSQSSPPEQPQSMEMRSVLRKAGSPRKARRARLNPLVLLLDAALTGELEVVQQAVKEMNDPSQPNEEGITALHNAICGANYSIVDFLITAGANVNSPDSHGWTPLHCAASCNDTVICMALVQHGAAIFATTLSDGATAFEKCDPYREGYADCATYLADVEQSMGLMNSGAVYALWDYSAEFGDELSFREGESVTVLRRDGPEETDWWWAALHGQEGYVPRNYFGLFPRVKPQRSKV
B1 was tested, and the binding [1] was “binds”.

B2: iASPP (pcDNA3.1-iASPP) (protein, UniProt Q8WUF5 1-828)
chain: MDSEAFQSARDFLDMNFQSLAMKHMDLKQMELDTAAAKVDELTKQLESLWSDSPAPPGPQAGPPSRPPRYSSSSIPEPFGSRGSPRKAATDGADTPFGRSESAPTLHPYSPLSPKGRPSSPRTPLYLQPDAYGSLDRATSPRPRAFDGAGSSLGRAPSPRPGPGPLRQQGPPTPFDFLGRAGSPRGSPLAEGPQAFFPERGPSPRPPATAYDAPASAFGSSLLGSGGSAFAPPLRAQDDLTLRRRPPKAWNESDLDVAYEKKPSQTASYERLDVFARPASPSLQLLPWRESSLDGLGGTGKDNLTSATLPRNYKVSPLASDRRSDAGSYRRSLGSAGPSGTLPRSWQPVSRIPMPPSSPQPRGAPRQRPIPLSMIFKLQNAFWEHGASRAMLPGSPLFTRAPPPKLQPQPQPQPQPQSQPQPQLPPQPQTQPQTPTPAPQHPQQTWPPVNEGPPKPPTELEPEPEIEGLLTPVLEAGDVDEGPVARPLSPTRLQPALPPEAQSVPELEEVARVLAEIPRPLKRRGSMEQAPAVALPPTHKKQYQQIISRLFHRHGGPGPGGPEPELSPITEGSEARAGPPAPAPPAPIPPPAPSQSSPPEQPQSMEMRSVLRKAGSPRKARRARLNPLVLLLDAALTGELEVVQQAVKEMNDPSQPNEEGITALHNAICGANYSIVDFLITAGANVNSPDSHGWTPLHCAASCNDTVICMALVQHGAAIFATTLSDGATAFEKCDPYREGYADCATYLADVEQSMGLMNSGAVYALWDYSAEFGDELSFREGESVTVLRRDGPEETDWWWAALHGQEGYVPRNYFGLFPRVKPQRSKV
With B2 the binding [2] was “no binding” and the binding [3] was “binds”.
